Here are results for 2 molecules from publication PMC4330386 (Nucleic Acids Research, 2015).

Experiment [1] has as its target T1, Mus81 (coimmunoprecipitation, data not shown) (S. cerevisiae) (UniProt Q04149).
T1 sequence: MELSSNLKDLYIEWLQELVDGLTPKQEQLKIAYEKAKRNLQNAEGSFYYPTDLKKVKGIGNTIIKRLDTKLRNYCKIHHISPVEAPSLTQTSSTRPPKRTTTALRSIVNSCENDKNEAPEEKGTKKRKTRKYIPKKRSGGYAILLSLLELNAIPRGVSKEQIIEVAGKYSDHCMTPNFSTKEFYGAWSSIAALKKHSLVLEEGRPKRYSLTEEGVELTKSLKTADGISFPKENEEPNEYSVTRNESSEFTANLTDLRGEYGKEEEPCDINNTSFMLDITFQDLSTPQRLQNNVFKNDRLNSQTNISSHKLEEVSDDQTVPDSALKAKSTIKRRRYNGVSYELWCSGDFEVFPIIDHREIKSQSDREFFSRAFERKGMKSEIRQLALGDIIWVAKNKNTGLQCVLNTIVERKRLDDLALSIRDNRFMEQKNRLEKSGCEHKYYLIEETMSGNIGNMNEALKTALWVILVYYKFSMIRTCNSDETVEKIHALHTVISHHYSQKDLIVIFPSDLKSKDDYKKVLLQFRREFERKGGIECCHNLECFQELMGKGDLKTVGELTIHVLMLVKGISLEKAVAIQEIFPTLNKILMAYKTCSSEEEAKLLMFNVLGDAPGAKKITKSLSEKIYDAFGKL
Put plainly: co-IP; data not shown; format not told.

Experiment [2] deals with T2, Rad27 (coimmunoprecipitation) (yeast) (UniProt P26793).
T2 sequence: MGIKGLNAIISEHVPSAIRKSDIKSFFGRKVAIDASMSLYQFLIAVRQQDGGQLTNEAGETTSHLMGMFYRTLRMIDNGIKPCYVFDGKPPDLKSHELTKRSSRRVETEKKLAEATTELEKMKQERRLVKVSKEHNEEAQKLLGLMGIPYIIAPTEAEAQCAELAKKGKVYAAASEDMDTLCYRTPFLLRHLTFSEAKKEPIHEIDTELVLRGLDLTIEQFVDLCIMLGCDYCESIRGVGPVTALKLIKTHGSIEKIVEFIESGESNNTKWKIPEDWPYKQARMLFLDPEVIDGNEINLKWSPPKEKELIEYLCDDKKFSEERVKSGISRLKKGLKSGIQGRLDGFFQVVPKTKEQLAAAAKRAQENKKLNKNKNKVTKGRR
Put plainly: co-IP; told in the discussion only; format not told.

Results are given in words; binding and its absence hold for the method and conditions named. In cells and extracts the contact can be indirect. Some binding calls cover weakened binding; strength is not graded here.

B1: GST-Rad27 (natural protein, yeast, UniProt P26793 1-382, looked up)
chain: MGIKGLNAIISEHVPSAIRKSDIKSFFGRKVAIDASMSLYQFLIAVRQQDGGQLTNEAGETTSHLMGMFYRTLRMIDNGIKPCYVFDGKPPDLKSHELTKRSSRRVETEKKLAEATTELEKMKQERRLVKVSKEHNEEAQKLLGLMGIPYIIAPTEAEAQCAELAKKGKVYAAASEDMDTLCYRTPFLLRHLTFSEAKKEPIHEIDTELVLRGLDLTIEQFVDLCIMLGCDYCESIRGVGPVTALKLIKTHGSIEKIVEFIESGESNNTKWKIPEDWPYKQARMLFLDPEVIDGNEINLKWSPPKEKELIEYLCDDKKFSEERVKSGISRLKKGLKSGIQGRLDGFFQVVPKTKEQLAAAAKRAQENKKLNKNKNKVTKGRR
In the case of B1, the binding entry in experiment [1] was “binds”.

B2: Mms4 (coimmunoprecipitation with Rad27) (protein, UniProt P38257 1-691)
chain: MSQIVDFVEDKDSRNDASIQIIDGPSNVEIIALSESMDQDECKRAHVSSAEMIPSSPQRKSVSNDVENVDLNKSIELSAPFFQDISISKLDDFSTTVNSIIDSSLRNENNAKGNAKKLLDDLISDEWSADLESSGKKHNKSQYNLRDIAEKWGVQSLKNPEPIAVDCEYKTQGIGKTNSDISDSPKSQIGAADILFDFPLSPVKHENPTEEKHNSIANENSSPDNSLKPAGKQNHGEDGTSMAKRVYNKGEDEQEHLPKGKKRTIALSRTLINSTKLPDTVELNLSKFLDSSDSITTDVLSTPAKGSNIVRTGSQPIFSNANCFQEAKRSKTLTAEDPKCTKNTAREVSQLENYIAYGQYYTREDSKNKIRHLLKENKNAFKRVNQIYRDNIKARSQMIIEFSPSLLQLFKKGDSDLQQQLAPAVVQSSYNDSMPLLRFLRKCDSIYDFSNDFYYPCDPKIVEENVLILYYDAQEFFEQYTSQKKELYRKIRFFSKNGKHVILILSDINKLKRAIFQLENEKYKARVEQRLSGTEEALRPRSKKSSQVGKLGIKKFDLEQRLRFIDREWHVKIHTVNSHMEFINSLPNLVSLIGKQRMDPAIRYMKYAHLNVKSAQDSTETLKKTFHQIGRMPEMKANNVVSLYPSFQSLLEDIEKGRLQSDNEGKYLMTEAVEKRLYKLFTCTDPNDTIE
On to B2, for which, in experiment [2], the binding entry is on record as “no binding”.
